PubChem BioAssay AID2685 (National Center for Advancing Translational Sciences (NCATS), 2010)
Out of some 320,000 compounds screened, about 2,100 (0.66%) were called active. This list was built around the results that the source calls inconclusive (neither active nor inactive); the mix of calls is not that of the screen. The call rests on the fitted dose curve; in most records, active means well fitted inhibition curve with a large enough effect in the signal ratio, with a control signal flat (not every such curve was filed as active); inconclusive means small, poorly fitted or top-dose-only effect, or effect the other way, or a change in a side signal; inactive means flat fitted curve, though single readings scatter; the % refers to the signal ratio. Where the call is inconclusive, the potency comes from a doubtful curve fit.

assay: qHTS Assay for Lipid Storage Modulators in Drosophila S3 Cells; conditions: BODIPY lipid droplet fluorescence, 18-24 h, cells fed with added oleic acid; lipid storage change, negative = inhibition: at 46.1 µM (top of the series) unless noted
Procedure, shortened: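 Laser-scanning cytometry quantifies lipid droplet accumulation (500–530 nm total intensity; droplet/cell object ratio) in oleic acid-fed (400 uM added) Drosophila S3 cells treated with a concentration series. 20 uM Triacsin C defined 100% inhibition.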
On the % scale 0 is the no-effect control and ±100 the full control effect; potency means the concentration at half of the fitted maximal effect.

| Compound | lipid storage change, negative = inhibition | Potency | outcome |
| --- | --- | --- | --- |
| CCN(CC)CCNS(=O)(=O)c1ccc2[nH]cc(C(=O)O)c(=O)c2c1 | inconclusive: -4.95% | – | – |
| CC1CCC2(CC1)NC(=O)N(CC(=O)NCCc1c[nH]c3ccccc13)C2=O (stereo not drawn) | inconclusive: -35.6% | – | – |
| COc1ccc(C(=O)NCc2ccncc2)cc1S(=O)(=O)N1CCOCC1 | inconclusive: 7.58% | – | – |
| CCc1ccc(CNC(=O)c2ccc3nc(C4CCCCC4)oc3c2)nc1 | – | inconclusive: 25.9 µM [falling, partial curve, poor fit] | – |
| O=C(Nc1cccnc1)c1ccc(S(=O)(=O)N2CCCCCC2)cc1 | – | inconclusive: 0.082 µM [falling, full curve, poor fit] | – |
| Cc1c(C(=O)O)sc2ncnc(N3CCCCC3C)c12 (stereo not drawn) | inconclusive: 42.2% | – | – |
| O=C1/C(=C\c2ccc(C(F)(F)F)cc2)CSc2sccc21 | – | inconclusive: 29.1 µM [falling, single point] | – |
| Cc1ccc(S(=O)(=O)N(C)C)cc1NC(=O)COC(=O)C1=COCCO1 | inconclusive: 6.1% | – | – |
| CCOC(=O)Cn1nc(C)cc1NC(=O)c1cc(OC)c(OC)c(OC)c1 | inconclusive: 27.4% | – | – |
| COc1cc(CSc2nnnn2-c2ccc(C)cc2)cc(OC)c1OC | – | inconclusive: 20.6 µM [falling, single point] | – |
| O=C(Nc1ccccn1)C1CCN(c2ncnc3c2nc2n3CCCCC2)CC1 | – | inconclusive: 0.231 µM [falling, full curve, poor fit] | – |
| CSCC(O)Cn1ncc2ccccc2c1=O (stereo not drawn) | – | inconclusive: 0.0231 µM [falling, full curve] | – |
| Cc1ccccc1NC(=O)C(=O)NNC(=O)COc1ccc2ccccc2c1 | – | inconclusive: 29.1 µM [activator, single point] | – |
| O=C(CP(=O)(O)CC(=O)c1ccccc1)c1ccccc1 | inconclusive: -15.5% | – | – |
| O=c1cc(-c2ccccc2Cl)oc2ccc([N+](=O)[O-])c(O)c12 | inconclusive: 9.56% | – | – |
| COc1cc(C)c(C)cc1S(=O)(=O)NC1CC(C)(C)NC(C)(C)C1 | – | inconclusive: 0.103 µM [activator, full curve, poor fit] | – |
| COc1ccc(NC(=O)C2CCCN2C(=O)NCc2ccccc2)cc1OC (stereo not drawn) | inactive: 2.15% | – | – |
| COc1ccnc(N2CCN(c3ccccc3)CC2)c1C#N | – | inconclusive: 8.2 µM [rising, partial curve] | – |
| CCc1nnc(NC(=O)CN2C(=O)/C(=C/c3cc(OC)c(OC)c(OC)c3)SC2=S)s1 | – | inconclusive: 14.6 µM [activator, partial curve, poor fit] | – |
| COc1cc(NC(=O)C2=C(N3CCOCC3)/C(=C\c3ccc(Cl)cc3Cl)CC2)cc(OC)c1OC | – | inconclusive: 0.184 µM [activator, full curve] | – |
| S=C(NC1CCCCC1)N1CCN(c2ccccn2)CC1 | inconclusive: 13.6% | – | – |
| Cn1cccc1C(=O)OCC(=O)N1CC(=O)Nc2ccccc21 | inconclusive: 3.42% | – | – |
| Cc1ccc(S(=O)(=O)N2CCC(=O)N(CCOCc3cccc(F)c3)CC2)cc1 | inconclusive: 4.12% | – | – |
| Cc1cc(C)cc(NC(=O)CN2C(=O)NC(C)(c3ccccc3)C2=O)c1 (stereo not drawn) | – | inconclusive: 0.651 µM [activator, single point] | – |

Some of the entries so far, with tabs.
Compound	lipid storage change, negative = inhibition	Potency	outcome
Cc1ccccc1NC(=O)C(=O)NNC(=O)COc1ccc2ccccc2c1	–	inconclusive: 29.1 µM [activator, single point]	–
O=C(CP(=O)(O)CC(=O)c1ccccc1)c1ccccc1	inconclusive: -15.5%	–	–
O=c1cc(-c2ccccc2Cl)oc2ccc([N+](=O)[O-])c(O)c12	inconclusive: 9.56%	–	–

The list goes on:

| Compound | lipid storage change, negative = inhibition | Potency | outcome |
| --- | --- | --- | --- |
| CCOC(=O)c1cn[nH]c1N | – | inconclusive: 11.6 µM [activator, partial curve] | – |
| CC(C)CCNC(=O)c1c[nH]c2ccc(S(=O)(=O)N3CCOCC3)cc2c1=O | – | inconclusive: 20.6 µM [falling, single point] | – |
| CCCCOC(=O)c1ccc(NC(=O)c2cc(Cl)ccc2OC)cc1 | inconclusive: 35.5% | – | – |
| CCOc1ccc(N(CC(=O)NCCSCc2ccc(Cl)cc2)S(C)(=O)=O)cc1 | – | active: 9.2 µM | – |
| COC(=O)Cc1cc(OC)c(OC)cc1Cc1cc(OC)c(OC)cc1CC(=O)OC | inconclusive: 39.4% | – | – |
| CCCCCOC(=O)Nc1ccc(S(=O)(=O)Nn2cnnc2)cc1 | – | inconclusive: 0.461 µM [falling, full curve, poor fit] | – |
| COC(=O)COc1ccc(S(=O)(=O)NCc2ccccn2)cc1 | – | inconclusive: 25.9 µM [activator, single point] | – |
| CCN(c1ccccc1)S(=O)(=O)c1cc([N+](=O)[O-])ccc1N | inactive: 0.407% | – | – |
| CCCOc1cc(C)c(S(=O)(=O)NC2CC(C)(C)NC(C)(C)C2)cc1C | inconclusive: -6.76% | – | – |
| O=C(c1ccc(CNS(=O)(=O)c2ccc(Br)cc2)cc1)N1CCCCCC1 | – | inconclusive: 29.1 µM [falling, single point] | – |
| CCc1c(C)nc2ccc(Br)cc2c1Cl | inconclusive: -23.1% | – | – |
| NC(=O)C1CCCN(C(=O)CNC(=O)C23CC4CC(CC(C4)C2)C3)C1 (stereo not drawn) | inconclusive: 5.25% | – | – |
| CC(=O)NS(=O)(=O)c1ccc2c(c1)Cc1cc(S(=O)(=O)NC(C)=O)ccc1-2 | inconclusive: -70.5% | – | – |
| COc1cc(OC)cc(C(=O)N2CCN(c3ccccc3F)CC2)c1 | – | inconclusive: 0.0052 µM [activator, full curve, poor fit] | – |
| CCOC(=O)c1c(-c2cccs2)csc1NC(=O)CSc1ncn[nH]1 | inconclusive: 63.7% | – | – |
| Cc1cccc(NC(=O)NC(=S)NC(=O)c2ccccc2)c1 | – | inconclusive: 18.4 µM [activator, partial curve, poor fit] | – |
| CNS(=O)(=O)c1cc(NC(=O)c2cccc3cccnc23)ccc1C | inconclusive: -14.6% | – | – |
| O=C(O)c1ccccc1-c1ccccc1C(=O)NCc1cccnc1 | inconclusive: 37.7% | – | – |
| CCN(CC)C(=O)COc1ccc(-c2nnc(Nc3ccc(OC)c(C(=O)NC)c3)c3ccccc23)cc1 | inconclusive: -16.8% | – | – |
| C=CCN(C(=O)c1csnn1)C(C(=O)NC1CCCC1)c1ccc(Cl)cc1 (stereo not drawn) | – | – | inactive [at 46.1 µM] |
| O=S(=O)(c1ccc(Cl)cc1Cl)n1ccc2cccnc21 | inconclusive: 32.5% | – | – |
| CCOC(=O)N/N=C/c1ccc(OC)c(O)c1 | inactive: 0.972% | – | – |
| COc1cc2cc(CN(CCc3ccccc3C)C(=S)NCCCN(C)C)c(=O)[nH]c2cc1OC | inconclusive: -18.3% | – | – |
| Cc1ccccc1OC(=O)Cn1c(C(F)(F)F)nc2ccccc21 | inconclusive: -37.2% | – | – |
